# Source: ChEMBL document CHEMBL1157379, “Transcriptional response of Candida parapsilosis following exposure to farnesol” (2007)
# The source gives many values for each of these; only a part stands here.
# Assays:
# Assay type in all cases: functional
# Candida parapsilosis [1] = experiment: Decrease in CGD gene ortholog accession number orf19.2049 expression in Candida parapsilosis CLIB214 at 50 uM after 2 hrs by microarray based transcriptional profiling relative to control
# Candida parapsilosis [2] = experiment: Increase in CGD gene ortholog accession number orf19.6442 expression in Candida parapsilosis CLIB214 at 50 uM after 2 hrs by microarray based transcriptional profiling relative to control
# Candida parapsilosis [3] = experiment: Decrease in CGD gene ortholog accession number orf19.2666 expression in Candida parapsilosis CLIB214 at 50 uM after 2 hrs by microarray based transcriptional profiling relative to control
# Candida parapsilosis [4] = experiment: Increase in CGD gene ortholog accession number orf19.6766 expression in Candida parapsilosis CLIB214 at 50 uM after 2 hrs by microarray based transcriptional profiling relative to control
# Candida parapsilosis [5] = experiment: Decrease in CGD gene ortholog accession number orf19.5406 expression in Candida parapsilosis CLIB214 at 50 uM after 2 hrs by microarray based transcriptional profiling relative to control
# Candida parapsilosis [6] = experiment: Decrease in CGD gene ortholog accession number orf19.3806 expression in Candida parapsilosis CLIB214 at 50 uM after 2 hrs by microarray based transcriptional profiling relative to control
# Candida parapsilosis [7] = experiment: Increase in CGD gene ortholog accession number orf19.3647 expression in Candida parapsilosis CLIB214 at 50 uM after 2 hrs by microarray based transcriptional profiling relative to control
# Candida parapsilosis [8] = experiment: Increase in CGD gene ortholog accession number orf19.7234 expression in Candida parapsilosis CLIB214 at 50 uM after 2 hrs by microarray based transcriptional profiling relative to control
# Candida parapsilosis [9] = experiment: Increase in BRE1 gene expression in Candida parapsilosis CLIB214 at 50 uM after 2 hrs by microarray based transcriptional profiling relative to control
# Candida parapsilosis [10] = experiment: Increase in CGD gene ortholog accession number orf19.323 expression in Candida parapsilosis CLIB214 at 50 uM after 2 hrs by microarray based transcriptional profiling relative to control
# Candida parapsilosis [11] = experiment: Increase in GenBank accession number NP_943637.1 expression in Candida parapsilosis CLIB214 at 50 uM after 2 hrs by microarray based transcriptional profiling relative to control
# Candida parapsilosis [12] = experiment: Decrease in RIB1 gene expression in Candida parapsilosis CLIB214 at 50 uM after 2 hrs by microarray based transcriptional profiling relative to control
# Candida parapsilosis [13] = experiment: Increase in ICL1 gene expression in Candida parapsilosis CLIB214 at 50 uM after 2 hrs by microarray based transcriptional profiling relative to control
# Candida parapsilosis [14] = experiment: Increase in ERG4 gene expression in Candida parapsilosis CLIB214 at 50 uM after 2 hrs by microarray based transcriptional profiling relative to control
# Candida parapsilosis [15] = experiment: Decrease in GAL7 gene expression in Candida parapsilosis CLIB214 at 50 uM after 2 hrs by microarray based transcriptional profiling relative to control
# Candida parapsilosis [16] = experiment: Increase in CGD gene ortholog accession number orf19.6019 expression in Candida parapsilosis CLIB214 at 50 uM after 2 hrs by microarray based transcriptional profiling relative to control
# Candida parapsilosis [17] = experiment: Increase in NADH51 gene expression in Candida parapsilosis CLIB214 at 50 uM after 2 hrs by microarray based transcriptional profiling relative to control
# Candida parapsilosis [18] = experiment: Increase in HTA3 gene expression in Candida parapsilosis CLIB214 at 50 uM after 2 hrs by microarray based transcriptional profiling relative to control
# Candida parapsilosis [19] = experiment: Increase in CGD gene ortholog accession number orf19.2324 expression in Candida parapsilosis CLIB214 at 50 uM after 2 hrs by microarray based transcriptional profiling relative to control
# Candida parapsilosis [20] = experiment: Decrease in CGD gene ortholog accession number orf19.7629 expression in Candida parapsilosis CLIB214 at 50 uM after 2 hrs by microarray based transcriptional profiling relative to control
# Candida parapsilosis [21] = experiment: Increase in LAG41 gene expression in Candida parapsilosis CLIB214 at 50 uM after 2 hrs by microarray based transcriptional profiling relative to control
# Candida parapsilosis [22] = experiment: Increase in CGD gene ortholog accession number orf19.6810 expression in Candida parapsilosis CLIB214 at 50 uM after 2 hrs by microarray based transcriptional profiling relative to control
# Candida parapsilosis [23] = experiment: Decrease in CGD gene ortholog accession number orf19.1177 expression in Candida parapsilosis CLIB214 at 50 uM after 2 hrs by microarray based transcriptional profiling relative to control
# Candida parapsilosis [24] = experiment: Decrease in INT1 gene expression in Candida parapsilosis CLIB214 at 50 uM after 2 hrs by microarray based transcriptional profiling relative to control
# Candida parapsilosis [25] = experiment: Increase in CGD gene ortholog accession number orf19.7237 expression in Candida parapsilosis CLIB214 at 50 uM after 2 hrs by microarray based transcriptional profiling relative to control
# Candida parapsilosis [26] = experiment: Increase in GenBank accession number NP_943642.1 expression in Candida parapsilosis CLIB214 at 50 uM after 2 hrs by microarray based transcriptional profiling relative to control
# Candida parapsilosis [27] = experiment: Increase in DIP2 gene expression in Candida parapsilosis CLIB214 at 50 uM after 2 hrs by microarray based transcriptional profiling relative to control
# Candida parapsilosis [28] = experiment: Decrease in CGD gene ortholog accession number orf19.6984 expression in Candida parapsilosis CLIB214 at 50 uM after 2 hrs by microarray based transcriptional profiling relative to control
# Candida parapsilosis [29] = experiment: Increase in GenBank accession number XP_460627.1 expression in Candida parapsilosis CLIB214 at 50 uM after 2 hrs by microarray based transcriptional profiling relative to control
# Candida parapsilosis [30] = experiment: Decrease in CCC1 gene expression in Candida parapsilosis CLIB214 at 50 uM after 2 hrs by microarray based transcriptional profiling relative to control
# Candida parapsilosis [31] = experiment: Increase in CGD gene ortholog accession number orf19.1372 expression in Candida parapsilosis CLIB214 at 50 uM after 2 hrs by microarray based transcriptional profiling relative to control
# Candida parapsilosis [32] = experiment: Increase in NDE1 gene expression in Candida parapsilosis CLIB214 at 50 uM after 2 hrs by microarray based transcriptional profiling relative to control
# Candida parapsilosis [33] = experiment: Increase in ALD5 gene expression in Candida parapsilosis CLIB214 at 50 uM after 2 hrs by microarray based transcriptional profiling relative to control
# Candida parapsilosis [34] = experiment: Decrease in DPP1 gene expression in Candida parapsilosis CLIB214 at 50 uM after 2 hrs by microarray based transcriptional profiling relative to control
# Candida parapsilosis [35] = experiment: Increase in NOC2 gene expression in Candida parapsilosis CLIB214 at 50 uM after 2 hrs by microarray based transcriptional profiling relative to control
# Candida parapsilosis [36] = experiment: Increase in CGD gene ortholog accession number orf19.3100 expression in Candida parapsilosis CLIB214 at 50 uM after 2 hrs by microarray based transcriptional profiling relative to control
# Candida parapsilosis [37] = experiment: Decrease in HEM2 gene expression in Candida parapsilosis CLIB214 at 50 uM after 2 hrs by microarray based transcriptional profiling relative to control
smiles,measurement,setting,value
CC(C)=CCC/C(C)=C/CC/C(C)=C/CO [FARNESOL],fold change (FC),Candida parapsilosis [1],1.92
same,fold change (FC),Candida parapsilosis [2],1.58
same,fold change (FC),Candida parapsilosis [3],1.78
same,fold change (FC),Candida parapsilosis [4],1.76
same,fold change (FC),Candida parapsilosis [5],1.65
same,fold change (FC),Candida parapsilosis [6],1.8
same,fold change (FC),Candida parapsilosis [7],1.77
same,fold change (FC),Candida parapsilosis [8],1.79
same,fold change (FC),Candida parapsilosis [9],1.84
same,fold change (FC),Candida parapsilosis [10],1.5
same,fold change (FC),Candida parapsilosis [11],3.55
same,fold change (FC),Candida parapsilosis [12],1.53
same,fold change (FC),Candida parapsilosis [13],1.66
same,fold change (FC),Candida parapsilosis [14],1.54
same,fold change (FC),Candida parapsilosis [15],1.55
same,fold change (FC),Candida parapsilosis [16],1.62
same,fold change (FC),Candida parapsilosis [17],2.74
same,fold change (FC),Candida parapsilosis [18],1.9
same,fold change (FC),Candida parapsilosis [19],1.68
same,fold change (FC),Candida parapsilosis [20],2.09
same,fold change (FC),Candida parapsilosis [21],1.89
same,fold change (FC),Candida parapsilosis [22],1.83
same,fold change (FC),Candida parapsilosis [23],1.97
same,fold change (FC),Candida parapsilosis [24],1.77
same,fold change (FC),Candida parapsilosis [25],1.57
same,fold change (FC),Candida parapsilosis [26],1.95
same,fold change (FC),Candida parapsilosis [27],1.63
same,fold change (FC),Candida parapsilosis [28],1.75
same,fold change (FC),Candida parapsilosis [29],2.54
same,fold change (FC),Candida parapsilosis [30],1.65
same,fold change (FC),Candida parapsilosis [31],1.79
same,fold change (FC),Candida parapsilosis [32],2.17
same,fold change (FC),Candida parapsilosis [33],1.83
same,fold change (FC),Candida parapsilosis [34],2
same,fold change (FC),Candida parapsilosis [35],1.67
same,fold change (FC),Candida parapsilosis [36],1.57
same,fold change (FC),Candida parapsilosis [37],1.55
